PubChem BioAssay AID1053208 | Peter MacCallum Cancer Centre | 2014
In all, the deposit lists about 17,000 reagents; this is a part drawn at random. 788 of them (4.7%) were called active. 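Calls rest on z-score classes alone; an extra cut-off of viability at most 70% of control was not applied to them.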 Further read-outs or replicates are left out here.

Purpose: 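Find knock-downs that sensitise mouse osteosarcoma cells to doxorubicin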 (primary screen)
Cells: mouse osteosarcoma cells, early-passage culture from an engineered mouse model of fibroblastic bone tumour
Knock-down reagent: siRNA pool against mouse genes, 40 nM
Duration: about 120 h (48 h before drug, then 72 h with drug)
Challenge: doxorubicin 100 nM for 72 h, roughly 30-40% inhibitory dose
Measurement: 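Luminescent ATP signal taken as viability with or without 100 nM doxorubicin for 72 h; mean of two wells set against non-targeting siRNA and turned into robust z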
Reading the numbers: viability z-score with doxorubicin: higher = more viable cells under doxorubicin; viability z-score without drug: higher = more viable cells with knock-down alone
Call rule: 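a pool counts as active when its viability z-score with doxorubicin is -2 or below and its z-score without drug lies between -2 and 2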

gene	combined z-score class	viability z-score with doxorubicin	viability z-score without drug	Outcome
Zfhx3	no change with or without drug	-1.24	-0.34	inactive
Fbxo5	no change with or without drug	-0.34	-0.34	inactive
Araf	no change with or without drug	0.9	-0.51	inactive
Ywhaz	no change with or without drug	-1.24	0.34	inactive
Cfap300	no change with or without drug	-0.22	-0.84	inactive
Lrrn4	high cell count without drug only	0.22	2.36	inactive
Myo10	no change with or without drug	1.57	-0.17	inactive
Or9s15	low cell count with and without drug	-2.7	-2.02	inactive
Tent4b	no change with or without drug	0.67	-0.51	inactive
Fgf22	no change with or without drug	0.11	0.34	inactive
Tmem229a	no change with or without drug	0.45	1.35	inactive
Trim56	no change with or without drug	0.79	-0.84	inactive
Xrn1	no change with or without drug	0.22	-1.35	inactive
Asrgl1	no change with or without drug	-0.67	-0.17	inactive
Ess2	no change with or without drug	-1.8	0	inactive
Tmem150c	no change with or without drug	0.34	1.52	inactive
Smarca5	no change with or without drug	-0.22	-1.18	inactive
Myt1	no change with or without drug	1.69	-0.17	inactive
Itpka	no change with or without drug	1.35	1.18	inactive

5 neighbouring records from above, quoted:
gene	combined z-score class	viability z-score with doxorubicin	viability z-score without drug	Outcome
Trim56	no change with or without drug	0.79	-0.84	inactive
Xrn1	no change with or without drug	0.22	-1.35	inactive
Asrgl1	no change with or without drug	-0.67	-0.17	inactive
Ess2	no change with or without drug	-1.8	0	inactive
Tmem150c	no change with or without drug	0.34	1.52	inactive

More entries follow:
gene	combined z-score class	viability z-score with doxorubicin	viability z-score without drug	Outcome
Ccdc40	no change with or without drug	0.9	0.17	inactive
Bcl2l13	no change with or without drug	1.01	1.52	inactive
Myo7a	high cell count with doxorubicin only	2.25	0.67	inactive
Ncf4	low cell count with doxorubicin only	-2.92	-1.69	active
Gngt2	no change with or without drug	-0.9	-0.17	inactive
Gdpd5	no change with or without drug	1.35	-0.17	inactive
Zfp352	no change with or without drug	-0.45	-0.17	inactive
Vmn1r76	no change with or without drug	0.22	-0.17	inactive
Cep70	no change with or without drug	0.9	-0.51	inactive
Nptx1	no change with or without drug	0.67	0	inactive
Ticrr	low cell count with and without drug	-3.15	-2.53	inactive
Cd200r4	no change with or without drug	0	-0.17	inactive
Zfp628	no change with or without drug	0.79	0.84	inactive
Cd9	no change with or without drug	-0.9	0.51	inactive
Cyp3a25	no change with or without drug	0.34	1.85	inactive
Usp25	no change with or without drug	-1.24	-1.52	inactive
Opn5	no change with or without drug	1.24	-0.34	inactive
Telo2	no change with or without drug	-0.9	0.51	inactive
Slc26a9	no change with or without drug	0.34	1.69	inactive
Sez6	no change with or without drug	1.8	0.51	inactive
Or2a25	no change with or without drug	-0.22	-1.18	inactive
Grap2	no change with or without drug	1.12	1.85	inactive
Or5b108	no change with or without drug	-1.12	-0.51	inactive
Upf1	no change with or without drug	-1.24	-1.18	inactive
Cidec	no change with or without drug	-0.45	-0.17	inactive
Ccser1	high cell count with doxorubicin only	2.36	1.52	inactive
Or11g7	no change with or without drug	0.9	0.84	inactive
Cipc	no change with or without drug	-1.57	-0.84	inactive
Ndufa5	low cell count with and without drug	-3.15	-2.53	inactive
Ophn1	high cell count with doxorubicin only	2.36	0.51	inactive
Or10g3	no change with or without drug	0.22	-0.51	inactive
